# Results: patent US12622941B2, “Anticoccidial composition comprising ginkgo leaves and use thereof” (CJ CHEILJEDANG CORPORATION, priority 2020, dated 2026)
# Some entries share one result that the patent states for a list of compounds.
# Columns and labels:
# Type in all cases: cell-based
# Eimeria acervulina [1] = assay: Eimeria acervulina sporozoite death rate by component of ginkgo leaf powder; conditions: from Table 12, tested 8 to 500 ppm
# Protocol: (§1) A certain amount of oocysts of each protozoan was put in a tube containing glass beads and pulverized, and then to remove the crushed oocyst cell wall and other debris, internal sporocysts were purified using the percoll density gradient, and washed with PBS solution. A reagent comprising sodium taurocholic acid (Sigma aldrich, USA) and trypsin (Gibco, USA), respectively, was treated to sporocysts of Eimeria tenella, Eimeria acervulina and Eimeria maxima for excystation and they were incubated, and then they were washed with PBS solution once and protozoa were obtained.
# Eimeria maxima = assay: Direct killing of protozoa (sporozoites), Eimeria maxima; conditions: tested 1 to 500 ppm, vs PBS control, listed as diclazuril
# Protocol: (§2) In the present example, protozoan (sporozoite) direct killing ability evaluation was conducted against 3 representative Eimeria kinds known to be infected in most farms (E. tenella, E. acervulina, E. maxima).
# as §1
# Eimeria acervulina [2] = assay: Direct killing of protozoa (sporozoites), Eimeria acervulina; conditions: tested 1 to 500 ppm, vs PBS control, listed as diclazuril
# Protocol: as §2, §1
SMILES,concentration showing death rate of 50% or more of Eimeria Acervulina protozoan (Eimeria acervulina [1]) [ppm],concentration showing killing ability of the Eimeria Acervulina protozoan (Eimeria acervulina [1]) [ppm],Minimum concentration for killing 50% protozoa (sporozoites) (ppm) (Eimeria maxima),Minimum concentration for killing 50% protozoa (sporozoites) (ppm) (Eimeria acervulina [2])
CC(C)(C)C1(O)CC2OC(=O)CC23C(=O)OC2OC(=O)C(O)C231 (stereo not shown) [Bilobalide],≥ 500,≥ 63,,
"N#CC(c1ccc(Cl)cc1)c1c(Cl)cc(-n2ncc(=O)[nH]c2=O)cc1Cl (stereo not shown) [Diclazuril, diclazuril]",,,> 500,> 500
